Experimental data: doi:10.64898/2025.12.12.693935
These are yes or no findings as the source states them, for the method shown. Some entries that bind do so weakly or less than the wild type. Tags and fused reporters may be left off the sequences shown.

Target: CADM1-His6 (human) (UniProt Q9BY67)
Experiment: SEC

- binding: binds weakly
B1: CADM1-His6 (protein, UniProt Q9BY67 45-442)
chain: QNLFTKDVTVIEGEVATISCQVNKSDDSVIQLLNPNRQTIYFRDFRPLKDSRFQLLNFSSSELKVSLTNVSISDEGRYFCQLYTDPPQESYTTITVLVPPRNLMIDIQKDTAVEGEEIEVNCTAMASKPATTIRWFKGNTELKGKSEVEEWSDMYTVTSQLMLKVHKEDDGVPVICQVEHPAVTGNLQTQRYLEVQYKPQVHIQMTYPLQGLTREGDALELTCEAIGKPQPVMVTWVRVDDEMPQHAVLSGPNLFINNLNKTDNGTYRCEASNIVGKAHSDYMLYVYDPPTTIPPPTTTTTTTTTTTTTILTIITDSRAGEEGSIRAVDHAVIGGVVAVVVFAMLCLLIILGRYFARHKGTYFTHEAKGADDAADADTAIINAEGGQNNSEEKKEYFI
